Reference: article PMC6770237
No constants are given. Whether binding was seen depends on the method and setting. Binding seen in cells or lysates may run through a third protein. Some results given as binding are weak or reduced against the parent protein; the word gives no strength. Blank lines part the entries; values can stand above or below the molecule they belong to.

Chains of the proteins cited; added tags and fusions are not shown.
UniProt Q01939: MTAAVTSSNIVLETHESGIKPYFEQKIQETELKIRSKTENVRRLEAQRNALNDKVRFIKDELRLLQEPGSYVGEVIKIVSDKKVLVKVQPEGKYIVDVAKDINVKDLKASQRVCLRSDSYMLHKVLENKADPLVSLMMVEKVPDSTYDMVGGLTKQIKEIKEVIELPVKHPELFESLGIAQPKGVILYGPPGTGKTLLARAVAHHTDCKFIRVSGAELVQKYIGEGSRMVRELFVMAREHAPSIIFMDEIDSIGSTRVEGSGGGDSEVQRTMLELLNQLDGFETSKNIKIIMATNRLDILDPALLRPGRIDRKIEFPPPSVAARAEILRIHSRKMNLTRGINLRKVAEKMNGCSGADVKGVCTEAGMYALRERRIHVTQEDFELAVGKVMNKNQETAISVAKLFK
UniProt P43588: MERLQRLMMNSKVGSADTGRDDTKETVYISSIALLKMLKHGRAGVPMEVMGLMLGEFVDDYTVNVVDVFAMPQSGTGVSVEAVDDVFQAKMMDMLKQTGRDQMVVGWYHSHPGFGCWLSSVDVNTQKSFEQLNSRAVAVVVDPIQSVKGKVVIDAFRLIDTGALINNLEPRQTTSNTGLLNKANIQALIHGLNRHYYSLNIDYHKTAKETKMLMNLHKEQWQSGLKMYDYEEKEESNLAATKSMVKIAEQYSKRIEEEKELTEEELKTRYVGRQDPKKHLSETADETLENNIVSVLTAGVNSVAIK

Legend:
[1] = biological target: CBP-A2-Rpt6 (Rpt6 amino-terminally tagged by a calmodulin binding peptide and two repeats of protein A) (S. cerevisiae) (UniProt Q01939); assay: pull-down; calmodulin sepharose affinity purification of CBP-A2-Rpt6 from lysate of WT cells, in the absence of ATP; 25 mM Tris pH 7.4, 200 mM NaCl, 2 mM CaCl2, 0.2% NP-40, 4 °C; elution with EGTA; immunoblotting
[2] = biological target: CBP-A2-Rpt6 (Rpt6 amino-terminally tagged by a calmodulin binding peptide and two repeats of protein A) (S. cerevisiae) (UniProt Q01939); assay: pull-down; calmodulin sepharose affinity purification of CBP-A2-Rpt6 from lysate of rpn11-m1 mutant cells, in the absence of ATP; 25 mM Tris pH 7.4, 200 mM NaCl, 2 mM CaCl2, 0.2% NP-40, 4 °C; elution with EGTA; immunoblotting

- binding [1]: binds
Molecule: Rpn11 (wild type) (from UniProt P43588 1-306)

- binding [2]: binds
B1: Cdc4 (protein, UniProt P07834 1-779)
chain: MGSFPLAEFPLRDIPVPYSYRVSGGIASSGSVTALVTAAGTHRNSSTAKTVETEDGEEDIDEYQRKRAAGSGESTPERSDFKRVKHDNHKTLHPVNLQNTGAASVDNDGLHNLTDISNDAEKLLMSVDDGSAAPSTLSVNMGVASHNVAAPTTVNAATITGSDVSNNVNSATINNPMEEGALPLSPTASSPGTTTPLAKTTKTINNNNNIADLIESKDSIISPEYLSDEIFSAINNNLPHAYFKNLLFRLVANMDRSELSDLGTLIKDNLKRDLITSLPFEISLKIFNYLQFEDIINSLGVSQNWNKIIRKSTSLWKKLLISENFVSPKGFNSLNLKLSQKYPKLSQQDRLRLSFLENIFILKNWYNPKFVPQRTTLRGHMTSVITCLQFEDNYVITGADDKMIRVYDSINKKFLLQLSGHDGGVWALKYAHGGILVSGSTDRTVRVWDIKKGCCTHVFKGHNSTVRCLDIVEYKNIKYIVTGSRDNTLHVWKLPKESSVPDHGEEHDYPLVFHTPEENPYFVGVLRGHMASVRTVSGHGNIVVSGSYDNTLIVWDVAQMKCLYILSGHTDRIYSTIYDHERKRCISASMDTTIRIWDLENIWNNGECSYATNSASPCAKILGAMYTLQGHTALVGLLRLSDKFLVSAAADGSIRGWDANDYSRKFSYHHTNLSAITTFYVSDNILVSGSENQFNIYNLRSGKLVHANILKDADQIWSVNFKGKTLVAAVEKDGQSFLEILDFSKASKINYVSNPVNSSSSSLESISTSLGLTRTTIIP

- binding [1]: binds
- binding [2]: binds
B2: Cdc53-Cullin1 (yCul1) (protein, UniProt Q12018 1-815)
chain: MSETLPRSDDLEATWNFIEPGINQILGNEKNQASTSKRVYKILSPTMYMEVYTAIYNYCVNKSRSSGHFSTDSRTGQSTILVGSEIYEKLKNYLKNYILNFKQSNSETFLQFYVKRWKRFTIGAIFLNHAFDYMNRYWVQKERSDGKRHIFDVNTLCLMTWKEVMFDPSKDVLINELLDQVTLGREGQIIQRSNISTAIKSLVALGIDPQDLKKLNLNVYIQVFEKPFLKKTQEYYTQYTNDYLEKHSVTEYIFEAHEIIKREEKAMTIYWDDHTKKPLSMALNKVLITDHIEKLENEFVVLLDARDIEKITSLYALIRRDFTLIPRMASVFENYVKKTGENEISSLLAMHKHNIMKNENANPKKLALMTAHSLSPKDYIKKLLEVHDIFSKIFNESFPDDIPLAKALDNACGAFININEFALPAGSPKSATSKTSEMLAKYSDILLKKATKPEVASDMSDEDIITIFKYLTDKDAFETHYRRLFAKRLIHGTSTSAEDEENIIQRLQAANSMEYTGKITKMFQDIRLSKILEDDFAVALKNEPDYSKAKYPDLQPFVLAENMWPFSYQEVEFKLPKELVPSHEKLKESYSQKHNGRILKWLWPLCRGELKADIGKPGRMPFNFTVTLFQMAILLLYNDADVLTLENIQEGTSLTIQHIAAAMVPFIKFKLIQQVPPGLDALVKPETQFKLSRPYKALKTNINFASGVKNDILQSLSGGGHDNHGNKLGNKRLTEDERIEKELNTERQIFLEACIVRIMKAKRNLPHTTLVNECIAQSHQRFNAKVSMVKRAIDSLIQKGYLQRGDDGESYAYLA
